The values are deposited in ChEMBL (CHEMBL3988442, “University of Dundee, Small-Polar-MMV Screening Library” (2021)).

Amino acid sequences for entries named in this document (tags omitted).
UniProt P9WFT3, whole entry: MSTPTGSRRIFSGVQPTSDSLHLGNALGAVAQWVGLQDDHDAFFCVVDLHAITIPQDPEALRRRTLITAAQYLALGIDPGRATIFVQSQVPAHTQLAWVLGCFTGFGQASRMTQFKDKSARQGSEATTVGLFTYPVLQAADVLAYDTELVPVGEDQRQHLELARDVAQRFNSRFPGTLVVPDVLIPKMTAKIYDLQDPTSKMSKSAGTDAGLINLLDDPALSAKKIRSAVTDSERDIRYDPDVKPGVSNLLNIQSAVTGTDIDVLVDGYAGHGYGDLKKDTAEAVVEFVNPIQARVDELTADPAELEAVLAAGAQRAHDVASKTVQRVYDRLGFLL

A: 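Enzyme assay of tryptophanyl-tRNA synthetase; the read-out is not stated. Target: Tryptophan-tRNA ligase, Mycobacterium tuberculosis (UniProt P9WFT3). Tested at 10 µM. Higher most likely means stronger inhibition; the record gives no direction and few retests gave an IC50. Size under these conditions: about 65,000 compounds, about 64 of them at 50% or above in at least one test.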
B: 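Cell assay of Leishmania donovani living inside macrophages; the read-out is not stated. Tested at 30 µM. The record gives no direction; compounds that gave an IC50 in retests scored well above the rest, so higher reads as stronger inhibition. Size under these conditions: about 69,000 compounds, about 1,000 of them at 50% or above in at least one test.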

Results are given as percent effect.
How 0% and 100% were set is not recorded. Most values in the screen are low, and negative values occur.
This is an unselected part of the compounds tested.
Two or more numbers in one place are separate tests of the same structure; such repeats can differ widely.

For O=C(NCc1cc[nH]n1)NCC(c1ccccc1Cl)N1CCCC1 (centres unmarked) the result was A: 0%; B: 19.61%.
For Cn1cc(CN2CCc3c(COCc4ccncc4)cncc3C2)cn1 the result was A: -2.008%; B: 15%.
For CCN(C(=O)NCc1ncc(C)c(OC)c1C)C(C)c1cccnc1 (centres unmarked) the result was A: -3.052%; B: 23.29%.
For CN(Cc1cccc2cccnc12)C1CCS(=O)(=O)C1 (centres unmarked) the result was A: 2.732%.
For CCCN1CCN(C(=O)c2cnccn2)[C@H]2CS(=O)(=O)C[C@H]21 the result was A: 0.6966%.
For CCN1CCCC(c2c(-c3ccccc3)ncn2CCc2c[nH]cn2)C1 (centres unmarked) the result was A: -6.244%; B: 15.43%.
For CCn1cc(S(=O)(=O)NC2(CN3CCOCC3)CCCCC2)c(C)n1 the result was A: -7.373%; B: 13.79%.
For CCOCCNC(=O)C(CCSC)NC(=O)c1ccc2ccccc2n1 (centres unmarked) the result was A: 8.753%; B: 1.292%.
For CCn1cnnc1CNC(=O)NC(C)c1ccccn1 (centres unmarked) the result was A: 4.283%; B: 21.03%.
For CC(C)Oc1cccc(CN(C)C(=O)Nc2cccn(C)c2=O)c1 the result was A: -0.08211%; B: -23.68%.
For Cc1ccc(CN2CCc3c(nnn3C)C2COCc2ccccc2)s1 (centres unmarked) the result was A: 0.834%.
For O=C(CCN1CCOC1=O)N(Cc1ccncc1)CC1CCCO1 (centres unmarked) the result was A: -1.248%; B: 6.017%.
For CC(Cc1cccc(F)c1)C(=O)NS(=O)(=O)c1ccc2c(c1)OCCO2 (centres unmarked) the result was A: 1.234%; B: 6.416%.
For c1cnc2[nH]c(C3CCCC3)c(CN3CCOCC3)c2c1 the result was B: 2.228% and -1.208%.
For Cc1ccc(C(=O)N(C)Cc2ccc(Br)o2)c(=O)[nH]1 the result was A: -3.375%; B: -17.02%.
For CCOc1cc(=O)n2c(c1C(=O)OCc1cccc(C)c1)CCCC2 the result was A: -3.698%; B: 27.77%.
For Cc1ccccc1N1CCN(C(=O)c2cnn(C(C)C)c2)C(C)C1 (centres unmarked) the result was A: -1.215%; B: 24.27%.
For Cc1csc(Nc2nccnc2C2CCCN2S(C)(=O)=O)n1 (centres unmarked) the result was B: 15.28% and 13.76%.
For O=C(c1ccccc1)N1C[C@@H]2CC[C@H](C1)N(Cc1cc(F)ccc1Cl)C2 the result was A: 3.986%.
For Cc1cccc(C(=O)Nc2c(C(=O)N(C)C)nn(C)c2C)c1 the result was A: 0.9067%; B: -50.87%.
For CCSc1cc(C(=O)NCc2ccc(C(=O)NC)cc2)ccn1 the result was A: 0.1285%; B: -0.2287%.
For Cc1nn(C)c2ncc(S(=O)(=O)N3CCN4CCCC4C3)cc12 (centres unmarked) the result was A: -2.805%; B: -2.996%.
For O=C(N1CCCC1)N1CCN(CC2CC2)c2ncccc2C1 the result was A: -4.053%; B: 9.488%.
For Cc1cc(C)nc(Nc2cc(C)nc(C3CCN(C(=O)CO)C3)n2)n1 (centres unmarked) the result was A: -4.557%; B: 7.204%.
For COc1ccc2c(c1)CC(NCc1cccc(NC(C)=O)c1)CC2 (centres unmarked) the result was A: 0.2683%; B: -11.62%.
For CC(=O)N1N=C(c2cccs2)OC1C(=O)NCc1ccc(C)o1 (centres unmarked) the result was B: -12.72%.